Data reported in patent US10543250B2, “Antimicrobial fusion peptides” (Los Angeles Biomedical Research Institute at Harbor-UCLA …, priority 2015, dated 2020).
At least one peptide structure holds a part that was inferred or is arguable (an end, a ring closure or a residue). No end group written: not given here.

Legend:
[1] = system: MDRAB clinical isolate HUMC-1; experiment: Neutropenic murine model of MDRAB pneumonia; set-up: species or system Acinetobacter baumannii; details: in vivo
Method: Neutropenic mice (cortisone acetate [250 mg/kg; subQ]+cyclophosphamide [200 mg/kg; IP] on study days-2, +3, and +8) were infected on day 0 (aerosolized; MDRAB clinical isolate HUMC-1; 5×10^8 CFU; lung Cx-positive). Treatment initiated 4 hr or 24 hr post-infection and continued for 3d. Groups:control (PBS); imipenem (15 mg/kg; IP; bid); γ-RP-1 (12.5 mg/kg; IV; qd); γ-RP-1 (12.5 mg/kg; IV; qd). Survival was then monitored to day 21. At end point or 21d, lungs and spleens were cultured. Outcomes were compared by non-parametric analysis. All studies adhered to institutional and AAALAC animal care policies.

[2] = system: MDRAB; experiment: Biomatrix assay: efficacy in human blood, plasma or serum; type: cell-based, Acinetobacter baumannii; details: human blood ex vivo
Method: Efficacies of RP-1 and γ-RP-1 in human blood, plasma, or serum were assessed. Peptide was added to biomatrix simultaneously with MDRAB (final inoculum 10^5 CFU/ml; peptide range […]; volume 100 μl). Controls were performed using Mueller Hinton broth (MHB; CLSI). Following incubation (constant agitation; 2 h, 37° C.), survival was quantified by culture (n=3) upon blood agar and defined as CFU/ml. Independent minimum, n=2.

[3] = Peptide pI; type: physicochemical
Method: Antimicrobial agents: RP-1 (pI/Mw: 10.82/2162.78 Da) is an 18-amino synthetic peptide derived from PF-4 family kinocidins. γ-RP-1 (pI/Mw: 10.64/4444.5 Da) is a 39-amino synthetic peptide comprising a CXCL4 kinocidin γ-core motif-RP-1 construct. Stock peptides dissolved in sterile ddH2O were diluted in suitable buffers. Antibiotics were purchased as purified powder and re-suspended in PBS per the manufacturer guidelines.

**Q.** What does the source list for ALYKKFKKKLLKSLKRLG [RP-1]?
**A.** efficacy vs. MDRAB in a murine model of neutropenic pneumonia [1]: significant efficacy; efficacy in human blood [2]: significant efficacy; pI [3]: 10.82
